No constants are given. Whether binding was seen depends on the method and setting. In cells and extracts the contact can be indirect. Some results given as binding are weak or reduced against the parent protein; the word gives no strength.
Tests used:
[1] = molecular target: cyclin E (human) (UniProt P24864); test: co-immunoprecipitation with anti-FLAG agarose from transfected U2OS cell extracts, western blot with anti-cyclin E
[2] = molecular target: cyclin E (human) (UniProt P24864); test: co-immunoprecipitation from U2OS cell extracts (FIG. 9)
[3] = molecular target: cyclin E (human) (UniProt P24864); test: co-immunoprecipitation with anti-FLAG agarose from transfected U2OS cell extracts, western blot

The chains behind the UniProt entries cited, without tags or fusion partners. Where a name states a change or a piece, a line headed by the entry shows the natural chain unless it says otherwise.
UniProt Q8NG08: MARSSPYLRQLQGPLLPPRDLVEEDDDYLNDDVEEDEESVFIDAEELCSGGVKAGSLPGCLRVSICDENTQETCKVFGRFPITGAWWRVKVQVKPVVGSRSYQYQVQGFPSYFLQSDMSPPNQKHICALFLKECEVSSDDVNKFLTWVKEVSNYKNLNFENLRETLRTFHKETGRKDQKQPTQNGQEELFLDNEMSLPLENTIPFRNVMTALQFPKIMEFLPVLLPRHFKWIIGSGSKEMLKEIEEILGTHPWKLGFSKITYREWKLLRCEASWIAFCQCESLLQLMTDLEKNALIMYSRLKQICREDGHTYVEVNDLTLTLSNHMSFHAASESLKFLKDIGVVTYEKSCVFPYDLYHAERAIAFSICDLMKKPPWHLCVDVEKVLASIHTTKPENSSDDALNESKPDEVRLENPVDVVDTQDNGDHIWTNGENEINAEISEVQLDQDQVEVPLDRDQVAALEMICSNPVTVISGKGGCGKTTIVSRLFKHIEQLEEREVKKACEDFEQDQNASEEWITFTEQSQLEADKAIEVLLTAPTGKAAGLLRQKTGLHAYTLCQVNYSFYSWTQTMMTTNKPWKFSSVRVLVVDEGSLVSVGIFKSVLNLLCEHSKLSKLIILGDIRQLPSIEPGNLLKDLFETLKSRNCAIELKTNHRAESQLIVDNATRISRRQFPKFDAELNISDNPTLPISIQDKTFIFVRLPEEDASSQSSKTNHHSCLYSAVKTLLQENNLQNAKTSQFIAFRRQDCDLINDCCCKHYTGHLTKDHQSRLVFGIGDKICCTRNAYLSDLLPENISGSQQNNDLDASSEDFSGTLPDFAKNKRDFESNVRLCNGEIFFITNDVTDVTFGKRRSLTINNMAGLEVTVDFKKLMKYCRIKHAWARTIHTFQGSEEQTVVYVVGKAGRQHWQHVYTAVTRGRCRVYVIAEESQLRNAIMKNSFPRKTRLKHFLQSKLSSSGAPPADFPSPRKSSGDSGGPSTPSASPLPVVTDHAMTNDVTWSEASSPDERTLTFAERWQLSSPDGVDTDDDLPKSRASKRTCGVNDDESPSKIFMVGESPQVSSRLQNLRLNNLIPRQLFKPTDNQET

binding [1] | binding [2] | binding [3] | Substance
binds | binds |  | FLAG-HDHB (from UniProt Q8NG08 1-1087)
 |  | binds | FLAG-HDHB-S967A (from UniProt Q8NG08 1-1087)

Reference: patent publication US20070212707A1, “CELL CYCLE MARKERS” (GE HEALTHCARE UK LIMITED, priority 2004, published 2007)
